# Source: paper PMC7363444
# By UniProt entry, the sequences of proteins in these tests, tags left out.
# UniProt P21333: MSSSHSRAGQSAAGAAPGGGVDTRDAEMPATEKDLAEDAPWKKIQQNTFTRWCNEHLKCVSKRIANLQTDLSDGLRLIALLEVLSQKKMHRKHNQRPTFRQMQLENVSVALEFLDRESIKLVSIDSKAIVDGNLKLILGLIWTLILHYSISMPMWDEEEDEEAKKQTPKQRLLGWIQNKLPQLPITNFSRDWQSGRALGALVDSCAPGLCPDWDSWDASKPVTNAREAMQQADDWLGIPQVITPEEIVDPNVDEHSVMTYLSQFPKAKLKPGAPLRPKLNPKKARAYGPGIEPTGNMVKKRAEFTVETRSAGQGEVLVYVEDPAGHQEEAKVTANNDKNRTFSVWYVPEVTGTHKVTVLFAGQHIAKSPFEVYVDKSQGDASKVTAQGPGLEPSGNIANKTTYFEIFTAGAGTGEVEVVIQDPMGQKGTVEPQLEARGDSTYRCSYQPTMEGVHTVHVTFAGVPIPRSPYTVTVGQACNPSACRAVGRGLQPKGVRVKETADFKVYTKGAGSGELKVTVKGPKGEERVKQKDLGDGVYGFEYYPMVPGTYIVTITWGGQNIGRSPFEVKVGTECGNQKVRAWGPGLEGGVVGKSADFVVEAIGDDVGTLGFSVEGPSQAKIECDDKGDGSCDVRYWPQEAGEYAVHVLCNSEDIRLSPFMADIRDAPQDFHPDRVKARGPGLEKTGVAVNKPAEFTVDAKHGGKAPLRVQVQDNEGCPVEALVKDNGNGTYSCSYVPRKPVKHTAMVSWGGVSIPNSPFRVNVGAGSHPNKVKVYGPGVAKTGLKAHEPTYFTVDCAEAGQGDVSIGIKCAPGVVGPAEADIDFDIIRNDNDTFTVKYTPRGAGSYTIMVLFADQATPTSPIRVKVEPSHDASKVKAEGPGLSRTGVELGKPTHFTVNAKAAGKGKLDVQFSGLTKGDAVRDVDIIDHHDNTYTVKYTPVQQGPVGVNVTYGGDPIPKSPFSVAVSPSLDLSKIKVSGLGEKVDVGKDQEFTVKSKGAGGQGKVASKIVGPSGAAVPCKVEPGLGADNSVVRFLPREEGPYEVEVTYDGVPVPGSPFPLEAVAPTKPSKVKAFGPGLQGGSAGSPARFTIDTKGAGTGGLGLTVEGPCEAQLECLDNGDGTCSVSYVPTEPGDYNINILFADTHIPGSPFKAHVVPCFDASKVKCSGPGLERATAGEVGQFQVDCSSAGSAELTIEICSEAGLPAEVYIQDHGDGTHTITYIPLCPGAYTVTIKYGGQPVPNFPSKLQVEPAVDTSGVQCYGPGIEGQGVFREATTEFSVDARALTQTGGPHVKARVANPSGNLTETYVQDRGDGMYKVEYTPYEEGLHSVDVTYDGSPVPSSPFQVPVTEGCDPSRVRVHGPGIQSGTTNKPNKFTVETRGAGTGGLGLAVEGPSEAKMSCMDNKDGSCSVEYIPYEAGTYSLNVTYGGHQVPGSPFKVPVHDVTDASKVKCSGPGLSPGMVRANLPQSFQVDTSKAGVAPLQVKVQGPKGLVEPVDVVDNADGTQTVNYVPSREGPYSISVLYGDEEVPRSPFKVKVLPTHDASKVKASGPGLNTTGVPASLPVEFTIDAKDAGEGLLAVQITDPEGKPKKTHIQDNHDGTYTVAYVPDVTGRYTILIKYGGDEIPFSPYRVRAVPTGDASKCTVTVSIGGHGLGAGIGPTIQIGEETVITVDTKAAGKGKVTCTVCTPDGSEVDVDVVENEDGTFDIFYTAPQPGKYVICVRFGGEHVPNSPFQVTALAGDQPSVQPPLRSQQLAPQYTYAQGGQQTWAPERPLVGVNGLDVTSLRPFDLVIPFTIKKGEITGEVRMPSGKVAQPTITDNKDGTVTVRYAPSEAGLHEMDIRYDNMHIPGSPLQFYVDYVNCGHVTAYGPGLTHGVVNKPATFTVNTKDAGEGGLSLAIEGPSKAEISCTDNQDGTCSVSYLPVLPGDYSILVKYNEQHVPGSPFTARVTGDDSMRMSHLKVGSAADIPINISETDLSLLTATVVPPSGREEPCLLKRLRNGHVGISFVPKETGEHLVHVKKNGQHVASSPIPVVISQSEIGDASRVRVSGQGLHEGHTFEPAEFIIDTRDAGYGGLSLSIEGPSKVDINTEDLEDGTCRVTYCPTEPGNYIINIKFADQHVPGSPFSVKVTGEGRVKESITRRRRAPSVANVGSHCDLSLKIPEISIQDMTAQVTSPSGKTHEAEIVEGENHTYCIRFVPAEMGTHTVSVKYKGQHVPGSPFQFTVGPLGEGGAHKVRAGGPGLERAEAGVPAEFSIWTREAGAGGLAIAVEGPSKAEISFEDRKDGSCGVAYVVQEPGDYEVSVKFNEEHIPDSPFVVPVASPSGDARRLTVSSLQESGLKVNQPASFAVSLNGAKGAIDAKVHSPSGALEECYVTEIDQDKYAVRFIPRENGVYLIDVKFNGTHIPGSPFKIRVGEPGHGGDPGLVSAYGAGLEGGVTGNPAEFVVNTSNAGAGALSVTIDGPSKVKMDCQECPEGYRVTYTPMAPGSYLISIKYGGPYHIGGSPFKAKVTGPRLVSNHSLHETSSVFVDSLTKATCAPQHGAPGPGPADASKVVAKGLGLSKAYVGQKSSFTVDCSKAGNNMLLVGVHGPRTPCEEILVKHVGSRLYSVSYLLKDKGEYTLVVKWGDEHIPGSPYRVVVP
# These are yes or no findings as the source states them, for the method shown. Binding seen in cells or lysates may run through a third protein. Some binding calls cover weakened binding; strength is not graded here. Tags and fused reporters may be left off the sequences shown.
# Molecular target: T1, LUZP1-YFP (human) (UniProt Q86V48)
# T1 sequence: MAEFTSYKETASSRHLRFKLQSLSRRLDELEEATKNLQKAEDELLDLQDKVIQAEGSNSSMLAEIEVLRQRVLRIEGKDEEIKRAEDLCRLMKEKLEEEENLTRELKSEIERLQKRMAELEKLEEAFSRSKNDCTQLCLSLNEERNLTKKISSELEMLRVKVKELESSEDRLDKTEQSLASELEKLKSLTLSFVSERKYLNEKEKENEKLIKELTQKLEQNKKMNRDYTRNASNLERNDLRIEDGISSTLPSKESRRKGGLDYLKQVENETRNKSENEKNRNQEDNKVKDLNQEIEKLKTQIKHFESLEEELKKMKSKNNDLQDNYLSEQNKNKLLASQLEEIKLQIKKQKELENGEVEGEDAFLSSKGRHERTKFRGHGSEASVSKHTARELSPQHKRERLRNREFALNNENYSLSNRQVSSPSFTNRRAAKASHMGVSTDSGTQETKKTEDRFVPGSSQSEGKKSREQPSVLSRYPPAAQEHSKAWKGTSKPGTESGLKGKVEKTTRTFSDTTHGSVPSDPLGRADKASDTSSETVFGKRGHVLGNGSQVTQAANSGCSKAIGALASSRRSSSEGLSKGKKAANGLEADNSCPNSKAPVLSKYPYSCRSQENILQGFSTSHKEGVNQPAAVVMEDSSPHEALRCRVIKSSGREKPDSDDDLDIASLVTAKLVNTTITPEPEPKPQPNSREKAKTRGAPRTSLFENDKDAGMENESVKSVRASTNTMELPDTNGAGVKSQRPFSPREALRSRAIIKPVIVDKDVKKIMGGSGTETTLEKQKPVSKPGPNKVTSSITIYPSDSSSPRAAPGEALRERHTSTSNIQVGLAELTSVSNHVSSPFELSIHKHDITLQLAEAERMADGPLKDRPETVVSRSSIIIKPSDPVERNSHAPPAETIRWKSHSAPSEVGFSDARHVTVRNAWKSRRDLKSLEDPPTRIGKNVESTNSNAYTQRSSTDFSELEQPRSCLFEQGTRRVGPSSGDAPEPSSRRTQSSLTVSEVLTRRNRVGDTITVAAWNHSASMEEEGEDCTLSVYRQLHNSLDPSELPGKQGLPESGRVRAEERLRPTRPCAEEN
# Test: pull-down; GFP-Trap resin on lysates of transfected HEK 293FT cells (WT or 293^335; SALL1^275-YFP with or without co-expressed SALL1^FL-2xHA); 4 °C, lysis 25 mM Tris-HCl pH 7.5, 150 mM NaCl, 1 mM EDTA, 1% NP-40, 0.5% Triton X-100, 5% glycerol; washes with 300 mM NaCl; western blot
substance,measurement,value
filamin A (endogenous) (from UniProt P21333 1-2647),binding,binds
